pIC50: −log10 of the molar value. At least one read-out could not be matched to a standard name with certainty.
System: 786-O cells
Assay: Anti-proliferation activity in 786-O cells in the presence of a ferroptosis inhibitor (Ferrostatin-1 or Liproxstatin-1)
Assay type: cell-based
Settings: Liproxstatin-1 (2 μM)
Method: In one assessment, cells (KP4, 786-0 and HT-1080) were seeded (700 cells/well, 1000 cells/well or 3000 cells/well) in 384-well or 96-well plates and incubated at 37° C./5% CO2 for 22-24 hours. A series of 8 different concentrations of compound stocks were created by 5-fold serial dilution in DMSO. These compounds were further diluted in culture media and were then added to cells (final concentrations: 100 μM, 20 μM, 4 μM, 0.8 μM, 0.16 μM, […].). After 72 hours of incubation, 30 μL of CellTiter Glo reagent (Promega) was added to each well and luminescence was measured after 10 minutes using SpectraMax M5/M5e (Molecular Devices). Luminescence from cells treated with DMSO alone was set as background and % of inhibition was calculated as follows: […]
Anti-proliferation activity of various compounds was also tested in the presence of an ferroptosis inhibitor, Ferrostatin-1 (2 μM) or Liproxstatin-1 (2 μM). Certain results are provided in Table 4 and Table 5 as examples. “A” indicates an IC50≤100 nM; “B” indicates an IC50 of >100 nM and ≤500 nM; “C” indicates an IC50>500 nM and ≤5 μM; and “D” indicates an IC50>5 μM.

| Compound | pIC50 |
| --- | --- |
| CNc1nc(COC(=N)N2CCOCC2C(F)(F)F)nc2c1C1(CCCC1)C(=O)N2c1cnc(N2C[C@@H](C)O[C@@H](C)C2)nc1 (stereo partly shown) [Compound E97] | < 5.30 |
| CNc1nc(COC(=N)N2CCC[C@@H]2C(F)(F)F)nc2c1C1(CCCC1)C(=O)N2c1cnc(C2CCOCC2)nc1 [Compound E99] | < 5.30 |
| CNc1nc(COC(=N)N2CCC[C@@H]2C(F)(F)F)nc2c1C1(CCCC1)C(=O)N2c1cnc(N2C3CCC2COC3)nc1 [Compound E94] | < 5.30 |
| C[C@@H]1CN(c2ncc(N3C(=O)C4(CCCC4)c4c(N)nc(COC(=N)N5CCC[C@@H]5C(F)(F)F)nc43)cn2)C[C@H](C)O1 [Compound E87, (4′-amino-7′-(2-((2S,6R)-2,6-dimethylmorpholino)pyrimidin-5-yl)-6′-oxo-6′,7′-dihydrospiro[cyclopentane-1,5′-pyrrolo[2,3-d]pyrimidin]-2′-yl)methyl (R)-2-(trifluoromethyl)pyrrolidine-1-carbimidate] | < 5.30 |
| N=C(OCc1nc(N)c2c(n1)N(c1cnc(N3C4CCC3COC4)nc1)C(=O)C21CCCC1)N1CCC[C@@H]1C(F)(F)F [Compound E93] | < 5.30 |
| CNc1nc(COC(=N)N2CCC[C@@H]2C(F)(F)F)nc2c1C1(CCCC1)C(=O)N2c1cnc(N2C[C@@H](C)O[C@@H](C)C2)nc1 [Compound E88, (7′-{2-[(2R,6S)-2,6-dimethylmorpholin-4-yl]pyrimidin-5-yl}-4′-(methylamino)-6′-oxo-6′,7′-dihydrospiro[cyclopentane-1,5′-pyrrolo[2,3-d]pyrimidin]-2′-yl)methyl (2R)-2-(trifluoromethyl)pyrrolidine-1-carboximidate] | < 5.30 |
| CC1(C)CN(c2ccc(Oc3ccccc3)cc2)c2nc(COC(=N)N3CCC(F)(F)CC3)nc(N)c21 [Compound E2] | < 5.30 |
| N=C(OCc1nc(N)c2c(n1)N(c1cnc(C3CCOCC3)nc1)C(=O)C21CCCC1)N1CCC[C@@H]1C(F)(F)F [Compound E100, (4′-amino-6′-oxo-7′-(2-(tetrahydro-2H-pyran-4-yl)pyrimidin-5-yl)-6′,7′-dihydrospiro[cyclopentane-1,5′-pyrrolo[2,3-d]pyrimidin]-2′-yl)methyl (R)-2-(trifluoromethyl)pyrrolidine-1-carbimidate] | < 5.30 |

Now from value to compound:

| pIC50 | Compound |
| --- | --- |
| < 5.30 | N=C(NC12CC3CC(CC(C3)C1)C2)OCc1nc(N)nc(Nc2ccc(Oc3ccccc3)cc2)n1 [Compound F20] |
| < 5.30 | C#CCOc1cccc(Oc2ccc(Nc3nc(N)nc(COC(=N)N4CCC(F)(F)CC4)n3)cc2)c1 [Compound F21] |
| < 5.30 | CN(C(=N)OCc1nc(N)nc(Nc2ccc(Oc3ccccc3)cc2)n1)C1CCCCC1 [Compound F22] |
| < 5.30 | N=C(OCc1nc(N)nc(Nc2ccc(Oc3ccccc3)cc2)n1)N1CCCCC1C(F)(F)F (stereo not shown) [Compound F12] |
| < 5.30 | CCN1CCN(C(=N)OCc2nc(N)nc(Nc3ccc(Oc4ccccc4)cc3)n2)C2(CC2)C1=O [Compound F19] |

Reference: US20250304571A1, “BIOLOGICALLY ACTIVE COMPOUNDS AND METHODS THEREOF” (Suzhou Keen Therapeutics Co., Ltd., priority 2022, published 2025)
